Our source for the binding values is PMC8588357.

By UniProt entry, the sequences of proteins in these tests, tags left out. Residues count along the entry.
UniProt Q9P1W9, residues 2-311: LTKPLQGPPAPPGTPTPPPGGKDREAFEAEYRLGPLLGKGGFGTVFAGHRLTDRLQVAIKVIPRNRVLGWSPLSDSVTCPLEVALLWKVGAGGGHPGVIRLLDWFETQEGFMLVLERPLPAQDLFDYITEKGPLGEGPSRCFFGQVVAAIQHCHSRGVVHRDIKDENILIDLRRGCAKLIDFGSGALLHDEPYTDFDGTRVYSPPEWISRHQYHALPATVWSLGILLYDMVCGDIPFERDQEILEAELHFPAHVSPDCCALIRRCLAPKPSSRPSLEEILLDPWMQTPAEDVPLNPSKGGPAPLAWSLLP

In test [1] the target is recombinant PIM2 (proviral integration site of Moloney virus-2 kinase) (human) (UniProt Q9P1W9). Nature of the test: SEC; 15 mg purified refolded rPIM2 on Sephacryl-200 HR 26/60; 50 mM Tris, 150 mM sodium chloride, pH 7.2; both purified.
For test [2] the target is unchanged. Nature of the test: native gel or EMSA; refolded purified rPIM2 run on SDS-PAGE and on native-PAGE side by side, CBB staining; both purified.

Results are given in words; binding and its absence hold for the method and conditions named.

For “recombinant PIM2 (proviral integration site of Moloney virus-2 kinase) (from UniProt Q9P1W9 2-311) (enzyme)”, the binding result in test [1] and in test [2] was “no binding” throughout.
